Data from patent publication US4015002A, “1-Aryl-2-oxo-2,4,5,6,7,7a-hexahydro-indoles, salts, pharmaceutical compositions and methods of use” (Laboratoire Roger Bellon, priority 1974, dated 1977).
Some entries share one result that the patent states for a list of compounds.

Each molecule was assayed on isolated auricle (assay: Cardiac action on the isolated auricle (Trevan preparation): amplitude of contractions).
Protocol: This was examined according to known methods in the isolated auricle (Trevan preparation) and in the isolated heart of a rabbit (Langendorf preparation).
Cardiac action of the compounds in question was evaluated according to the amplitude of contractions of the isolated auricle.

SMILES	Action on amplitude of contractions of the auricle (in words)
O=C1C=C2CCCCC2N1c1ccc(OCCN2CCOCC2)cc1 (centres unmarked) [Example 3, 1-[4-(2-morpholinoethoxy)-phenyl]-2-oxo-2,4,5,6,7,7a-hexahydro-indole]	inactive
CN(C)CCOc1ccc(N2C(=O)C=C3CCCCC32)cc1 (centres unmarked) [Example 5, 1-[4-(2-Dimethylaminoethoxy)-phenyl]-2-oxo-2,4,5,6,7,7a-hexahydro-indole]	inactive
O=C1C=C2CCCCC2N1c1ccc(OCCN2CCCCC2)cc1 (centres unmarked) [Example 6, 1-[4-(2-Piperidinoethoxy)-phenyl]-2-oxo-2,4,5,6,7,7a-hexahydro-indole]	inactive
CC(C)N(CCOc1ccc(N2C(=O)C=C3CCCCC32)cc1)C(C)C (centres unmarked) [Example 7, 1-[4-(2Diisopropylaminoethoxy)-phenyl]-2-oxo-2,4,5,6,7,7a-hexahydro-indole]	inactive
CN(C)CCCOc1ccc(N2C(=O)C=C3CCCCC32)cc1 (centres unmarked) [Example 8, 1-[4-(3-Dimethylaminopropoxy)-phenyl]-2-oxo-2,4,5,6,7,7 a-hexahydro-indole]	inactive
O=C1C=C2CCCCC2N1c1cccc(OCCN2CCOCC2)c1 (centres unmarked) [Example 9, 1-[3-(2-Morpholinoethoxy)-phenyl]-2-oxo-2,4,5,6,7,7a-hexahydro-indole]	inactive
O=C1C=C2CCCCC2N1c1cccc(OCCN2CCCCC2)c1 (centres unmarked) [Example 10, 1-[3-(2-piperidinoethoxy)-phenyl]-2-oxo-2,4,5,6,7,7a-hexahydro-indole]	inactive
CCN(CC)CCOc1cccc(N2C(=O)C=C3CCCCC32)c1 (centres unmarked) [Example 11, 1-[3-(2-Diethylaminoethoxy)-phenyl]-2-oxo-2,4,5,6,7,7a-hexahydro-indole]	inactive
CN(C)CCOc1cccc(N2C(=O)C=C3CCCCC32)c1 (centres unmarked) [Example 12, 1-[3-(2-Dimethylaminoethoxy)-phenyl]-2-oxo-2,4,5,6,7,7a-hexahydro-indole]	inactive
CC(C)N(CCOc1cccc(N2C(=O)C=C3CCCCC32)c1)C(C)C (centres unmarked) [Example 13, 1-[3-(2-Diisopropylaminoethoxy)-phenyl]-2-oxo-2,4,5,6,7,7a-hexahydro-indole]	inactive
O=C1C=C2CCCCC2N1c1ccc(OCCN2CCCCC2)c(Cl)c1 (centres unmarked) [Example 14, 1-[3-chloro-4-(2-piperidinoethoxy)-phenyl]-2-oxo-2,4,5,6,7,7a-hexahydro-indole]	inactive
CN(C)CCOc1ccc(N2C(=O)C=C3CCCCC32)cc1Cl (centres unmarked) [Example 15, 1-[3-chloro-4-(2-dimethylaminoethoxy)-phenyl]-2-oxo-2,4,5,6,7,7a-hexahydro-indole]	inactive
CCN(CC)CCOc1ccc(N2C(=O)C=C3CCCCC32)cc1Cl (centres unmarked) [Example 16, 1-[3-Chloro-4-(2-diethylaminoethoxy)-phenyl]-2-oxo-2,4,5,6,7,7a-hexahydro-indole]	inactive
O=C1C=C2CCCCC2N1c1ccc(OCCN2CCOCC2)c(Cl)c1 (centres unmarked) [Example 17, 1-[3-Chloro-4-(2-morpholinoethoxy)-phenyl]-2-oxo-2,4,5,6,7,7a-hexahydro-indole]	inactive
